# Laboratory results taken from PubChem BioAssay AID504834 (National Center for Advancing Translational Sciences (NCATS), 2011).
# About 22,000 (6.9%) of roughly 320,000 compounds were called active. The shares of active, inactive and inconclusive entries below differ from those in the screen. Calls follow the shape of the dose curve; as a rule, active = well fitted inhibition curve with a large enough effect; inconclusive = small, poorly fitted or top-dose-only effect, or another doubt; inactive = no such curve, though single readings can be large or run the other way. Potencies beside an inconclusive call are fits to weak or partial responses and may not hold up.
# Experiment: Primary qHTS for delayed death inhibitors of the malarial parasite plastid, 96 hour incubation
# Conditions: P. falciparum luciferase reporter growth; series mostly up to 28.7 µM; activity change, negative = inhibition: at the top concentration
# Procedure, shortened: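 Two-generation exposure (96 h) targets delayed-death phenotype. Reporter parasites carrying integrated firefly luciferase, in red cells at 2% hematocrit and 0.05% parasitemia final, kept at 37 C, 5% CO2; luminescence loss indicates inhibition.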
# % is scaled to controls: 0 for no effect and ±100 for the full control effect; potency is read from the fitted curve at half-maximal effect.
Structure (SMILES),Potency,"activity change, negative = inhibition"
CCOCCCn1c(SCC(=O)NCc2ccco2)nc2c(sc3ccccc32)c1=O,"inconclusive: 10.4 µM [inhibitor, partial curve, poor fit]",
Cc1cc(C(=O)OCC(=O)N2CCOCC2)c2ccccc2n1,"inconclusive: 18.5 µM [inhibitor, single point]",
COc1ccc(N=C2CC(C)(C)CC(=O)/C2=C(/O)c2ccccc2)cc1,,inactive: -24.9%
COc1ccc(N=C2C(=Nc3ccc(OC)cc3)N(c3ccccc3)C(=S)N2C(=O)c2ccc(Cl)cc2)cc1,"inconclusive: 3.7 µM [inhibitor, single point]",
Fc1ccc(C(c2nnnn2C2CCCCC2)N2CCCC2)cc1 (stereo not given),,inactive: -32.8%
CCCc1[nH]nc2c1C1(C(=O)N(CC)c3ccccc31)C(C#N)=C(N)O2 (stereo not given),"inconclusive: 0.522 µM [inhibitor, full curve, poor fit]",
CC1(C)Cc2c(sc(NC(=O)C(=O)N3CCOCC3)c2C#N)CO1,"inconclusive: 18.5 µM [inhibitor, single point]",
Cc1ccccc1OCC(=O)OCC(=O)Nc1ccc(S(N)(=O)=O)cc1,"inconclusive: 4.15 µM [inhibitor, partial curve, poor fit]",
O=C(COc1ccccc1-c1ccccc1)N/N=C/c1ccccn1,,inactive: 1.42%
CCOC(=O)N1CCN(C(=O)Cc2c(C(=O)O)n(C)c3ccccc23)CC1,,inactive: -4.24%
COc1ccc(-c2csc3ncnc(N4CCN(c5cccc(Cl)c5)CC4)c23)cc1,active: 7.38 µM,
CC(NC(=O)NC12CC3CC(CC(C3)C1)C2)C1CCCO1 (stereo not given),,inactive: -12.6%
COc1ccc(OC)c(C(=O)/C=C/c2ccccc2C(F)(F)F)c1,"inconclusive: 18.5 µM [inhibitor, single point]",
CC(C)N(Cc1ccccc1)C(=O)C1CCN(c2ncnc3c2nc2n3CCCCC2)CC1,"inconclusive: 11.7 µM [inhibitor, single point]",
O=C(Nc1ccccc1Cl)Nn1cnnc1,,inactive: 22.9%
COc1ccc(C(=O)CSc2nnc3n2CCCN3C(=O)Nc2ccccc2)cc1,"inconclusive: 13.1 µM [inhibitor, partial curve, poor fit]",
CCC(NC(=O)c1ccccc1NC(=O)c1ccco1)C(=O)NNC(=O)c1ccncc1 (stereo not given),"inconclusive: 11.7 µM [inhibitor, partial curve, poor fit]",
CCOP(=O)(c1ccc(N(C)C)cc1)C(O)c1ccc(C)cc1 (stereo not given),,inactive: -8.84%
COc1cccc(CN(C(=O)c2cccs2)C2CCS(=O)(=O)C2)c1 (stereo not given),,inactive: -2.09%
Cn1c(=O)cc(OCCCC(=O)N2CCN(Cc3ccc4c(c3)OCO4)CC2)c2ccccc21,"inconclusive: 18.5 µM [inhibitor, single point]",
Cc1c(NC(=O)c2cc3ccccc3o2)c(=O)n(-c2ccccc2)n1C,"inconclusive: 1.85 µM [inhibitor, full curve, poor fit]",
CCOC(=O)CSc1nc(C)c2cc(C)c(C)cc2n1,"inconclusive: 13.1 µM [inhibitor, partial curve]",
O=C(CCc1nc2ccccc2c(=O)[nH]1)Nc1cc(C(F)(F)F)ccc1N1CCCC1,"inconclusive: 18.5 µM [inhibitor, single point]",

Structure (SMILES),Potency,"activity change, negative = inhibition"
O=S(=O)(Nc1ccccc1N1CCOCC1)c1ccc(F)c(Cl)c1,,inactive: -7.82%
O=C(N/N=C/c1ccc(O)cc1O)c1ccc(NC(=O)C2CCCCC2)cc1,"inconclusive: 18.5 µM [inhibitor, single point]",
CN1CCCN(C(=O)COc2ccc(F)cc2Cl)CC1,"inconclusive: 14.7 µM [inhibitor, single point]",
COc1ccc(NS(=O)(=O)c2cccc(NC(=O)C3=NN(c4ccccc4)C(=O)CC3)c2)cc1,active: 7.38 µM,
COc1ccc(OCCCC(=O)Nc2ccc(N3CCOCC3)cc2)cc1,"inconclusive: 18.5 µM [inhibitor, single point]",
C/C(=C\c1ccccc1)C(=O)Nc1nc2ccc([N+](=O)[O-])cc2s1,,inactive: 1.41%
O=C(c1cc2ccccc2o1)N1CCN=C1SCc1cccnc1,"inconclusive: 1.85 µM [inhibitor, partial curve, poor fit]",
O=[N+]([O-])c1ccc(S(=O)(=O)NCC(c2cccnc2)N2CCOCC2)cc1 (stereo not given),,inactive: 19.4%
CC(C)(c1ccccc1)c1ccc(OCCCN2CCNCC2)cc1,"inconclusive: 11.7 µM [inhibitor, single point]",
C/C(=N\NC(=O)CSc1nc2nc(C)cc(C)n2n1)c1ccccc1,"inconclusive: 0.828 µM [inhibitor, full curve, poor fit]",
CCC(OC(=O)c1ccco1)C(=O)NC1CCCC1 (stereo not given),,inactive: 2.95%
COc1ccc(-c2nc(S(=O)(=O)c3ccc(C)cc3)c(N3CCCC3)o2)cc1,"inconclusive: 13.1 µM [inhibitor, single point]",
CCn1cc(C(=O)NN)c(=O)c2cc(F)c(N3CCN(C)CC3)cc21,active: 11.7 µM,
Cc1nn(-c2ccccc2)c2c1C1(C(=O)N(C)c3ccccc31)N(c1ccccc1)C(=O)N2 (stereo not given),,inactive: 10%
O=S(=O)(c1ccccc1)c1cnc(-c2ccccc2)nc1N1CCCCC1,"inconclusive: 10.4 µM [inhibitor, single point]",
O=C(CN1CCN(S(=O)(=O)/C=C/c2ccccc2)CC1)Nc1ccccc1N1CCOCC1,active: 3.7 µM,
CNC(=O)N(C1=NCC(C)(C)S1)c1ccc(F)c(Cl)c1,active: 7.38 µM,
CCCCCCC(=O)NNC(=O)CC(=O)Nc1ccccc1C(=O)O,"inconclusive: 10.4 µM [inhibitor, single point]",
CCc1ccc(-c2ccc3nnc(SCC(=O)NCC4CCCO4)n3n2)cc1 (stereo not given),"inconclusive: 11.7 µM [inhibitor, single point]",
COc1cccc(CN2CCNC(=O)C2CC(=O)NC2Cc3ccccc3C2)c1 (stereo not given),"inconclusive: 8.28 µM [inhibitor, partial curve, poor fit]",
CN(C)S(=O)(=O)c1cccc(C(=O)Nc2ccccc2)c1,,inactive: 19.9%
CCC(=O)N1CCc2cc(S(=O)(=O)Nc3ccc4c(c3)OCCO4)ccc21,"inconclusive: 10.4 µM [inhibitor, single point]",

# Sorted by number of heavy atoms (smallest number first): part of the list above
Structure (SMILES),Potency,"activity change, negative = inhibition"
CNC(=O)N(C1=NCC(C)(C)S1)c1ccc(F)c(Cl)c1,active: 7.38 µM,
C/C(=C\c1ccccc1)C(=O)Nc1nc2ccc([N+](=O)[O-])cc2s1,,inactive: 1.41%
CCC(=O)N1CCc2cc(S(=O)(=O)Nc3ccc4c(c3)OCCO4)ccc21,"inconclusive: 10.4 µM [inhibitor, single point]",
